Experimental data published in the supplement of paper PMC5949888.
Most values lie at the floor of the assay. Slopes are relative: functional sequences can read slightly below zero.

Each substance was assayed on Saccharomyces cerevisiae PS128 hsf1 delta, HSF1(1-493) fusion (assay: growth estimate (transactivation domain function in HSF1 fusion, heat-shock survival) (a.u. (slope of normalised read count over time)); higher = stronger growth at 37°C, i.e. more transactivation activity). Conditions: library: random library.
Method: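 Random 60-nt DNA library encoding peptides of up to 20 aa, fused to the C-terminus of yeast HSF1 residues 1-493 (C-terminal TAD deleted) and expressed from the native HSF1 promoter on a CEN plasmid in hsf1-deleted S. cerevisiae PS128. Cells were selected at 37°C on -trp 5-FOA plates for 0, 2, 4, 6 and 8 days and amplicons were sequenced. Growth estimate is the slope of a robust linear fit of total-sum-normalised read counts (normalised to the first time point) over time, using at least 2 replicates. Sequences are classed functional (TAD activity) above a threshold of -0.13, set from stop-codon control sequences.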
Work on QTAED yielded a growth estimate of less than -0.25. For YEV, the growth estimate was less than -0.25. KFNEFDVSDNVYVNLAPCQA was tested, and the growth estimate was -0.248. Work on AGKDLEPAI yielded a growth estimate of less than -0.25. PCSL gave a growth estimate of less than -0.25. YGTGILILVNECSF was tested, and the growth estimate was less than -0.25. TTWYTDLYASSLKAIQIIPS was tested, and the growth estimate was -0.214. With VVGVPSAMNWRALQEWHPTS the growth estimate was less than -0.25. Work on SCRAADRDPKCPATMSGFSA yielded a growth estimate of less than -0.25. Substance TDLVGTRLVQPLSTQLIQ has a growth estimate of less than -0.25. Substance DICAIRTSHGVVTSTAVQGV has a growth estimate of less than -0.25. Substance SGMDRPSLVDQILPLGHVAL has a growth estimate of less than -0.25. Work on PQQALMSRVAATGLVPA yielded a growth estimate of less than -0.25. PNYLMLLASQQIALGSTSRA showed a growth estimate of less than -0.25. GTHSVRTRQRPERCQWSCPV showed a growth estimate of less than -0.25. EFT was tested, and the growth estimate was less than -0.25. Substance RAVGILYV has a growth estimate of less than -0.25. CRAIWSRARVVASPGQGDRG showed a growth estimate of less than -0.25. In the case of VWIGRMGSG, the growth estimate is reported as less than -0.25. Substance TIQECPISPRSCTTLCAARG has a growth estimate of less than -0.25. With PLYSFTIGRYAGILNHQTFR the growth estimate was less than -0.25. LGRK was tested, and the growth estimate was less than -0.25. GESQVVQF was tested, and the growth estimate was less than -0.25. SLPRCITSIDQGSALPFVPV showed a growth estimate of less than -0.25. In the case of THYRGGTTRSLHCCPLDMPT, the growth estimate is reported as less than -0.25. Substance EDKWVKTRRIDWQRNTRF has a growth estimate of -0.243. GRIMAVRV was tested, and the growth estimate was less than -0.25. For LIGGQHRG, the growth estimate was less than -0.25. Substance KMAFSRPCLYAYCRYRSAVW has a growth estimate of less than -0.25. For AGTGHRVNTKDQLEGGPARP, the growth estimate was less than -0.25. With EMRLSHFVVRIWVVTHIQQT the growth estimate was less than -0.25. With LRVPV the growth estimate was less than -0.25. LDNAGDRNRCRLCISASGVI gave a growth estimate of less than -0.25. Work on MTSI yielded a growth estimate of less than -0.25. Work on CRLTPGTSDHYLASCRLRDQ yielded a growth estimate of less than -0.25. Substance VCGIRAVPQARARCCLALLK has a growth estimate of less than -0.25. RNGEGQYGRAHLWE showed a growth estimate of less than -0.25. With GSLVRKHPPWGPSVRVSPRC the growth estimate was less than -0.25. EGTL was tested, and the growth estimate was less than -0.25. Substance VEGSGLQEGGPKLIFSIRG has a growth estimate of less than -0.25. With EHRVNPL the growth estimate was less than -0.25. EPYHYIKH showed a growth estimate of less than -0.25. Substance VVGLYWPGKWAGKLTVNFQS has a growth estimate of less than -0.25. IVK gave a growth estimate of less than -0.25. MGASKKFGSGMILAGLQRTS gave a growth estimate of less than -0.25. VLGCFTFFSVDLHNEMPART was tested, and the growth estimate was less than -0.25. PRTNGSYNVRCGTQALAVLA was tested, and the growth estimate was less than -0.25. For RTLDTHNQ, the growth estimate was less than -0.25. TVGRDVLTLRLTRDQRGWHV gave a growth estimate of less than -0.25. With RKDLESNGESNRMHC the growth estimate was less than -0.25. For HELKMIAVEVGSSFHLT, the growth estimate was less than -0.25. For TYESYYQDPAHTCIVCDPLV, the growth estimate was -0.102. With EDGLGSTVTPCPLLPLAPCA the growth estimate was less than -0.25. SIEAAS was tested, and the growth estimate was -0.243. ESRGWKAVLTANRTRTCSCE gave a growth estimate of less than -0.25. For HGQRVGPGHTIRRPRYTMRQ, the growth estimate was less than -0.25. Work on VTPWSSRSGPGSVIYFS yielded a growth estimate of less than -0.25. For HTS, the growth estimate was 3.64. Substance GRGWDCQRTRSQRLLYYRRS has a growth estimate of less than -0.25. Work on LCLYLACNGSHVYQRSDAVR yielded a growth estimate of less than -0.25. LTRVQVPEVPGSYLLSAALL gave a growth estimate of -0.239. With IVNSCSSVRNPACSSFASGS the growth estimate was less than -0.25. Work on RSCREKLMFGDPHPSANSMN yielded a growth estimate of less than -0.25. With SAATPQIRISSLS the growth estimate was less than -0.25. Work on TAMRRHLQQL yielded a growth estimate of less than -0.25. Work on RLPSIMARLHGCPLHRRKCL yielded a growth estimate of less than -0.25. ALGGPIS was tested, and the growth estimate was less than -0.25. For RLWSRGLQTRNCRVGLLGMS, the growth estimate was less than -0.25. In the case of QNRILDEKHKLPYANPNIVL, the growth estimate is reported as less than -0.25. Work on ERTTALGVPRSTQEMLRPIR yielded a growth estimate of less than -0.25. Substance SPTVIHEDITF has a growth estimate of less than -0.25. Substance KEGFSKHRRNNCGLTREH has a growth estimate of less than -0.25. For SAAAY, the growth estimate was less than -0.25. For DATDYKISNVGLV, the growth estimate was less than -0.25. LGVSSGIKKLVPKIPDAAAE was tested, and the growth estimate was less than -0.25. For ALLVML, the growth estimate was less than -0.25. Substance KYIVRNVRTV has a growth estimate of less than -0.25. Substance WLNPAGGVPIDQFSLRFIIT has a growth estimate of less than -0.25. For GSVLWGAFLLARRSAYKSKR, the growth estimate was less than -0.25. Work on GRSTARHSLASKLLAMVQDQ yielded a growth estimate of less than -0.25. LHVTGIHLTRREQRMVLKVS gave a growth estimate of less than -0.25. Work on HVGMWALSIGRWFLTSHL yielded a growth estimate of less than -0.25. AFPNAHRDHVDEPRCFKRQA was tested, and the growth estimate was less than -0.25. KNRPGSGVDMVFPQAGVGHG was tested, and the growth estimate was less than -0.25. Substance GPQYMRTLFKSDHRK has a growth estimate of less than -0.25. For IVSSKQVRERN, the growth estimate was less than -0.25. VVFTFWQSFHHLCRCRGHDR gave a growth estimate of less than -0.25. CACWSGLDCVPLVCAGVHIF gave a growth estimate of less than -0.25. Work on ADYGE yielded a growth estimate of less than -0.25. With CDCRVSKPDSVWHSLTE the growth estimate was less than -0.25. In the case of AWSSCGSEMFGSGGSFWNFC, the growth estimate is reported as -0.0954. Substance GKAWQRWKATGDIWPTSACL has a growth estimate of less than -0.25. In the case of SYRMPGECS, the growth estimate is reported as less than -0.25. DSPVTET was tested, and the growth estimate was less than -0.25. For WSRSLDSSKGFPACFVYSTS, the growth estimate was less than -0.25. SQA was tested, and the growth estimate was less than -0.25. TIRQSIRWGVFSWVM gave a growth estimate of less than -0.25. Substance SEHLTFPEGILGAPRASNYF has a growth estimate of less than -0.25. Substance TDMSWGSFPKSKIVDLWVVG has a growth estimate of less than -0.25. Substance WGVRLCMPNKLLAFPVRGQ has a growth estimate of -0.243. For KFNHGVYQLLLQPRDKPAIA, the growth estimate was less than -0.25. QDRTSEEQHRMKTITRRLRA showed a growth estimate of less than -0.25. With VTKQAPVVHPRSFFLSPTDV the growth estimate was less than -0.25. With LVRAGSRERCK the growth estimate was less than -0.25. SEIVGVLRVRTKVPCTINRR was tested, and the growth estimate was less than -0.25. SVEDIVCDHTAD was tested, and the growth estimate was less than -0.25. In the case of VVGSEQV, the growth estimate is reported as less than -0.25. HWPVEPGF gave a growth estimate of less than -0.25. For VRRYVRIVSLGYARGKEVIS, the growth estimate was -0.246. QEWSNSRHCPDWNTPVDKRP showed a growth estimate of less than -0.25. With EVCD the growth estimate was less than -0.25. Substance RSGPPIKQGFDARSWPQFNP has a growth estimate of less than -0.25. In the case of CIEE, the growth estimate is reported as less than -0.25. KSRYRTHHTRT showed a growth estimate of less than -0.25. In the case of RMAEQALARMGAHH, the growth estimate is reported as less than -0.25. CSRSDIFVDLLAEEQMISLV was tested, and the growth estimate was less than -0.25. QIRFGTLLTPDIFFHRTSGG showed a growth estimate of less than -0.25. Substance TGI has a growth estimate of less than -0.25. With SLGPVWILTPVSIRWALRGQ the growth estimate was less than -0.25. Substance RCGGCAGPPIKKTGQDHLIC has a growth estimate of less than -0.25. TPIQVLGTRVVFALSNLERS was tested, and the growth estimate was less than -0.25. For NARLEGQCLK, the growth estimate was less than -0.25. FPRKQHKVFADELALPNWSG gave a growth estimate of less than -0.25. Substance CSAS has a growth estimate of less than -0.25. Substance SNSHRSHWAREATRYVRPHF has a growth estimate of less than -0.25. VVESCPREVRGITARLMTRA gave a growth estimate of less than -0.25. YQNVVYHGVLSETWLPPQGV gave a growth estimate of less than -0.25. Substance MRR has a growth estimate of less than -0.25. RNRVVGHCPTALEVPVLNPL was tested, and the growth estimate was less than -0.25. IGSAIRERVPRVHTPRS showed a growth estimate of less than -0.25. With RSEWRLVISDST the growth estimate was less than -0.25. ESGELALSISVRVA gave a growth estimate of less than -0.25. For SISTQAGDQDNSTWAPFESA, the growth estimate was less than -0.25. Substance LTGCLPKPLFRLRVTAEQTT has a growth estimate of less than -0.25. For LNWIL, the growth estimate was less than -0.25. VLMAKCLFTRMGGPF gave a growth estimate of less than -0.25. For HIFLKCEP, the growth estimate was less than -0.25. Work on TLGI yielded a growth estimate of less than -0.25. With LINESEVSGRA the growth estimate was less than -0.25. With RCASPIDSEVSLEGLSEF the growth estimate was less than -0.25. For SRPFHEAS, the growth estimate was less than -0.25. In the case of YTTVEYIWLRIWILR, the growth estimate is reported as less than -0.25. For GTQARNGLV, the growth estimate was -0.246. In the case of DVRPDFPLRHCSGPTLVYVR, the growth estimate is reported as less than -0.25. Work on HGSKIFKSCTYRTHVRPGLP yielded a growth estimate of less than -0.25. With VVLG the growth estimate was less than -0.25. With LLSERYQIRMGR the growth estimate was less than -0.25. VFRARGQR gave a growth estimate of -0.246. Work on EAV yielded a growth estimate of less than -0.25. Work on TSDYIPNSP yielded a growth estimate of less than -0.25. For SLMTQCQYRFCVKLS, the growth estimate was less than -0.25.
